The record followed here is patent US20230416942A1 (YALE UNIVERSITY, published 2023).

For one experiment, the target named is T1, LAIR2 (human, UniProt Q6ISS4 22-152).
T1 construct: Recombinant human protein in ELISA
T1 sequence (looked up): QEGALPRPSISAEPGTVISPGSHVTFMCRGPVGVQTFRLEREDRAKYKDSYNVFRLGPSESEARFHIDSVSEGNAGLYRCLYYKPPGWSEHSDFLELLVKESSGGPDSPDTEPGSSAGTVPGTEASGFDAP
Kind of experiment: REAP, yeast-displayed human antigen library.

The target of experiment [1] is T2, IL2RG (human) (UniProt P31785).
T2 sequence (looked up): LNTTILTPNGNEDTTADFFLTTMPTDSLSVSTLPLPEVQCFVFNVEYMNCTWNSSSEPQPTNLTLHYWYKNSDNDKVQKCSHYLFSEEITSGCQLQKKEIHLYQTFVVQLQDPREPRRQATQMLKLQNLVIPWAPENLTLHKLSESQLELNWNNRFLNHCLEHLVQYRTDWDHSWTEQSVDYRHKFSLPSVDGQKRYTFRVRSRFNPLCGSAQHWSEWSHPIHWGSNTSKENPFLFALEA
Kind of experiment: BLI, HIS1K sensor, his-tagged antigen immobilised, nanobody-Fc applied.

The target of experiment [2] is T2, IL2RG (human). Kind of experiment: REAP, yeast-displayed human antigen library.

These are yes or no findings as the source states them, for the method shown. Some entries that bind do so weakly or less than the wild type.

B1: LAIR2_Nb2.51 (Fc fusion)
chain: QVQLQESGGGLVQAGGSLRLSCAASGSIFYPSAMGWYRQAPGKERELVASIGQGGSTYYADSVKGRFTISRDNAKNTVYLQMNSLKPEDTAVYYCAVQPYSANLHRYWGQGTQVTVSS
notes: Nanobody expressed and tested as Fc fusion (human IgG1); not shown: human IgG1 Fc (vector pCER243)
Take B1: the binding result with LAIR2 is reported as “binds”.

B2: IL2RG_Nb3.454 (Fc fusion, not shown: a dimerising Fc or GST)
chain: QVQLQESGGGLVQAGGSLRLSCAASGSIFAGPAMGWYRQAPGKERELVAGIATGGTTYYADSVKGRFTISRDNAKNTVYLQMNSLKPEDTAVYYCAAGYLLLWEGQDGHDYWGQGTQVTVSS
For the molecule B2, the binding result with IL2RG (human) [1] and with IL2RG (human) [2] was “binds” each time.
